The assay can be described thus: qHTS Assay for Lipid Storage Modulators in Drosophila S3 Cells.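 On cell number change: cells counted by Cell Tracker Red CMTPX staining in the red channel.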 As to conditions: BODIPY lipid droplet fluorescence, 18-24 h; for cell number change: measured here: cell count max response, cells fed with added oleic acid. The method in brief:
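Laser-scanning cytometry quantifies lipid droplet accumulation (500–530 nm total intensity; droplet/cell object ratio) in oleic acid-fed (400 uM added) Drosophila S3 cells treated with a concentration series. 20 uM Triacsin C defined 100% inhibition.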
In general terms: Quantitative high-throughput screening tests each substance at several concentrations.

The mark [1] stands for this setting: measured here: lipid fluorescence (Fed channel) AC50, cells fed with added oleic acid.
The mark [2] stands for this setting: measured here: cell number channel AC50, cells fed with added oleic acid.

64 molecules from PubChem BioAssay AID2685 (National Center for Advancing Translational Sciences (NCATS), 2010) can be followed below.

Each structure is given as a SMILES string. This is one part of the list. The main result of the screen is listed elsewhere. These columns were measured beside it and carry no call. Compounds called inactive in the main read-out are mostly missing here. Words in brackets tell the shape of the fitted curve; partial curves, single points and poor fits give uncertain potencies.

For the molecule `CC(C)c1ccc(C(O)Cc2nc3ccccc3n2C)cc1` (stereo not drawn), the cell number change was found to be 13.8%. Further, the AC50 (in general, the concentration at which the activity in the assay is half-maximal) under setting [1] was 0.291 µM [rising, full curve, poor fit].
Consider `c1ccc(CSc2nnc(-c3ccccn3)n2-c2ccccc2)cc1`, for which the cell number change was found to be 50.6%. Moreover, the AC50 under setting [2] is 23.1 µM [rising, single point].
For `Cc1ccc2c(c1)N(S(=O)(=O)c1ccc(CN3C(=O)c4cccnc4C3=O)cc1)CCO2`, under setting [1], the AC50 is 29.1 µM [rising, single point].
Regarding `C=CCn1c(CNc2ccc(C)cc2)nnc1SCC(=O)N/N=C/c1ccc(O)cc1O`, the cell number change is -17.6%. Moreover, the AC50 under setting [1] was 29.1 µM [rising, single point].
With `CNC(=O)NC(=O)CSc1nc2ccccc2n1CCOC`, the cell number change is 10.5%. Under setting [1], the AC50 is 18.4 µM [rising, single point].
With `CC(C)CCCC(C)NC(=O)c1cc(S(=O)(=O)N2CCCCC2)ccc1N1CCOCC1` (stereo not drawn), the cell number change was -9.59%. Besides, the AC50 under setting [1] is 2.06 µM [rising, single point].
In the case of `Cc1ccccc1C(=O)Oc1ccc(-c2csnn2)cc1`, the cell number change was determined as 2.68%. The AC50 under setting [1] is 0.291 µM [rising, full curve, poor fit].
Consider `CC1Cc2nc(SCC(=O)Nc3ccc(F)cc3F)n(C)c(=O)c2S1` (stereo not drawn), for which the cell number change was 1.95%.
Same read-out and setting: the result for `CC1CCCN(Cc2c(O)ccc3c(=O)c(-c4ccc(Cl)cc4)coc23)C1` (stereo not drawn) reads 23.6%.
With `Cc1ccc(S(=O)(=O)N2CCC(C(=O)OC(C)C(=O)NCc3ccc4c(c3)OCO4)CC2)cc1` (stereo not drawn), the cell number change came out at 3.26%. For the same molecule, under setting [1], the AC50 is 0.651 µM [falling, single point].
Turning to `CCc1ccc(OCC(=O)Nc2nnc(-c3ccco3)s2)cc1`, the cell number change was found to be 13.1%. Further, under setting [1], the AC50 is 29.1 µM [rising, single point].
`COc1cc2[nH]c(=S)nc(NCc3ccccc3)c2cc1OC`: the cell number change was -1.39%. Also, the AC50 under setting [2] was 0.00461 µM [falling, full curve, poor fit].
With `CC(=O)N1CCN(S(=O)(=O)c2ccc(S(=O)(=O)NC3CC3)cc2)CC1`, the cell number change was found to be 72.1%. In addition, the AC50 under setting [2] was 18.4 µM [rising, single point]. Moreover, the AC50 under setting [1] was 20.6 µM [rising, single point].
With `NS(=O)(=O)c1ccc(NC(=O)Cc2cccs2)cc1`, the cell number change was -10.2%. Moreover, the AC50 under setting [1] was 29.1 µM [rising, single point].
As to `COCCNC(=O)CSc1ccccc1C(=O)O`, the cell number change is 32%. In addition, the AC50 under setting [2] was 14.6 µM [rising, single point]. In addition, the AC50 under setting [1] is 29.1 µM [rising, single point].
Turning to `COc1cnc(-c2ccccc2)nc1Oc1cccc(C)c1`, the cell number change is -19.6%. The AC50 under setting [1] is 6.51 µM [rising, single point].
As for `CCn1c(SCC(=O)NC2CC2)nnc1-c1cccc(OC)c1`, the cell number change was determined as 9.39%.
Regarding `CC(C)Oc1ccc(NC(=O)c2ccncc2)cc1`, under setting [2], the AC50 was 0.103 µM [falling, partial curve, poor fit].
For `Cc1ccc(Cl)c(OCC(=O)Nc2cc(S(=O)(=O)N3CCOCC3)ccc2N2CCCC2)c1`, the cell number change came out at 7.52%. Moreover, the AC50 under setting [1] is 35.5 µM [rising, single point].
In the case of `O=C(Cc1cccs1)NNC(=O)c1ccc(F)cc1`, the cell number change was 4.77%. For the same molecule, the AC50 under setting [2] was 0.326 µM [falling, partial curve, poor fit].
For `COc1ccc(C(=O)Nc2cc(-c3nn4c(C)nnc4s3)ccc2C)cc1`, the AC50 under setting [1] was 0.00461 µM [rising, full curve, poor fit].
`CC1CCCN(C(=O)C2CCN(C(=O)Nc3ccccc3)CC2)C1` (stereo not drawn): the cell number change was -11.5%. The AC50 under setting [1] is 1.3 µM [falling, full curve].
Regarding `Cc1nc2ccccc2cc1C(=O)NCc1ccc(F)cc1`, the cell number change was -131%. The AC50 under setting [2] is 29.1 µM [falling, partial curve, poor fit].
As for `CN(C)S(=O)(=O)c1ccc(N2CCCC2)c(C(=O)NCc2ccc(Cl)cc2)c1`, the cell number change worked out at 73.1%. For the same molecule, the AC50 under setting [2] is 18.4 µM [rising, partial curve]. The AC50 under setting [1] was 18.4 µM [rising, partial curve].
Consider `COC(=O)NC(NC(=S)Nc1ccc([N+](=O)[O-])cc1)C(Cl)(Cl)Cl` (stereo not drawn), for which the cell number change is -29.9%. Under setting [1], the AC50 is 32.6 µM [falling, single point].
Consider `CCOc1ccccc1C1C(C(N)=O)=C(C)Nc2nc(-c3ccccc3Cl)nn21` (stereo not drawn), for which the concentration at half-maximal activity (AC50) under setting [1] is 6.51 µM [rising, single point].
On to `CCc1ccc(-c2cc3c(=O)n(CC(=O)NCCCN4CCC(Cc5ccccc5)CC4)nc(C)n3n2)cc1`, for which the cell number change was -13.9%. Under setting [1], the AC50 is 8.2 µM [rising, full curve, poor fit].
In the case of `COc1ccccc1C(=O)Nc1cccnc1`, the cell number change was determined as 1.62%. The AC50 under setting [2] was 0.517 µM [falling, single point]. Under setting [1], the AC50 is 0.651 µM [falling, single point].
With `COc1cc(Br)cc(/C=N/N(CCO)C2=NS(=O)(=O)c3ccccc32)c1OC`, the cell number change was -20.9%.
Still for that read-out and setting: in the case of `O=S(=O)(NCCc1ccccc1)c1cccc(S(=O)(=O)N2CCOCC2)c1` it was 1.19%.
With `Cc1ccc(C)c(C(=O)COC(=O)c2cc(Cl)nc3ccccc23)c1`, the cell number change amounted to 9.05%. In addition, under setting [2], the AC50 is 0.146 µM [falling, full curve, poor fit]. For the same molecule, the AC50 under setting [1] is 3.66 µM [rising, partial curve, poor fit].
As to `COc1cc(O)c(NC(C)=O)c2nonc12`, the cell number change stood at 35.9%. In addition, the AC50 under setting [2] was 32.6 µM [rising, single point]. Under setting [1], the AC50 is 4.61 µM [rising, full curve].
For `CCCN1C2CCCC1CC(NC(=O)c1cccc(OC)c1)C2` (stereo not drawn), the cell number change is -2.85%.
For the molecule `O=c1c(-c2ccc(Br)cc2)[n+]([O-])c2ccccc2n1OCc1ccccc1`, the cell number change was found to be 50.1%. Further, the AC50 under setting [2] was 0.92 µM [rising, partial curve]. The AC50 under setting [1] was 29.1 µM [rising, single point].
With `CN(CC(=O)Nc1ccc(Cl)c(C(F)(F)F)c1)C(=O)c1cn2ccccc2n1`, the cell number change came out at 43.8%. Also, the AC50 under setting [2] is 20.6 µM [rising, single point].
As for `COc1cc(/C=N/Nc2nc3ccccc3[nH]2)cc(Br)c1OCC(=O)N(C)C`, the cell number change was -1.58%. The AC50 under setting [1] is 29.1 µM [falling, single point].
For the molecule `COc1cccc(CN(C(=O)COc2ccccc2[N+](=O)[O-])C2CCS(=O)(=O)C2)c1` (stereo not drawn), the cell number change is -25.7%. The AC50 under setting [1] is 16.4 µM [falling, partial curve, poor fit].
As to `COc1ccc(C(C(=O)NCC2CCCO2)N(C(=O)Cn2nnc3ccccc32)c2ccc(NC(C)=O)cc2)cc1OC` (stereo not drawn), the cell number change amounted to 4.84%.
Turning to `COc1ccc(C2CC(c3cccs3)=NN2C(=O)CCl)cc1OC` (stereo not drawn), the cell number change is -36.5%. The AC50 under setting [2] was 18.4 µM [falling, single point].
On to `O=C(O)Cn1c(SCc2ccccc2)nc2ccccc21`, for which the cell number change was -19.5%. Further, the AC50 under setting [1] is 18.4 µM [falling, single point].
With `Cc1cccc(NC(=O)c2ccccc2OCC(=O)N2CCOCC2)c1C`, the cell number change is -20%.
As for `COc1ccccc1C(=O)NCCC(=O)N(C)Cc1cccnc1`, the cell number change was 3.05%. For the same molecule, under setting [1], the AC50 was 1.03 µM [rising, full curve, poor fit].
Take `CCOC(=O)N1CCN(CC(=O)Nc2cccc(Br)c2)CC1`: the cell number change is -4.29%. Besides, under setting [1], the AC50 was 29.1 µM [rising, single point].
Turning to `CC(=O)c1c(Nc2ccccc2)sc(C(=O)c2ccccc2)c1C`, the cell number change was found to be 33.5%. Moreover, the AC50 under setting [2] was 11.6 µM [rising, partial curve].
For `CSc1ccccc1NC(=O)CSCc1ccc(C)cc1`, the cell number change worked out at 41.7%. For the same molecule, the AC50 under setting [2] was 18.4 µM [rising, single point].
As for `Cc1cccc(NC(=S)NCCCN2CCOCC2)c1`, the cell number change was -8.88%. Besides, under setting [1], the AC50 is 6.51 µM [rising, single point].
As to `Cc1ccc2cc(CN(Cc3cccs3)Cc3nnnn3C(C)(C)C)c3nnnn3c2c1`, the cell number change amounted to 32.9%. Further, under setting [2], the AC50 was 20.6 µM [rising, partial curve, poor fit]. Also, under setting [1], the AC50 is 0.651 µM [rising, partial curve].
Turning to `Cc1ccc2[nH]c(C(=O)N/N=C/c3ccccc3O)c(C)c2c1`, the cell number change was 10.8%. Besides, under setting [1], the AC50 was 29.1 µM [falling, single point].
Consider `Cc1csc(SCCN2C(=O)c3ccccc3C2=O)n1`, for which the cell number change came to 41.7%. Further, the AC50 under setting [2] was 8.2 µM [rising, partial curve]. In addition, under setting [1], the AC50 was 16.4 µM [rising, partial curve].
On to `Clc1ccc(Cl)c(-c2nc(-c3ccncc3)no2)c1`, for which the cell number change stood at 5.57%. In addition, under setting [1], the AC50 is 29.1 µM [rising, single point].
Take `CCO/C(C)=C1\C(=O)Nc2ccccc21`: the cell number change is -16.8%. Further, under setting [1], the AC50 is 9.2 µM [falling, partial curve].
Turning to `CCOc1ccc2c(c1)c(N=Nc1cccc(C(=O)O)c1)c(O)n2C`, the cell number change came to 7.32%.
Regarding `C=CCNc1nc(C(=O)OCC(=O)Nc2cc(S(C)(=O)=O)ccc2Cl)cs1`, the cell number change is 15.5%.
Still for that read-out and setting: in the case of `O=C(Nc1n[nH]c(=S)s1)c1ccco1` it was -1.8%.
With `O=C(CN1CCOCC1)Nc1ccccc1F`, the cell number change was 3.81%. Under setting [1], the AC50 was 29.1 µM [rising, single point].
For the molecule `OCCC1CN(Cc2cnn(-c3ccc(F)cc3)c2)CCN1Cc1ccsc1` (stereo not drawn), the cell number change stood at 0.591%. For the same molecule, the AC50 under setting [1] was 5.17 µM [rising, partial curve, poor fit].
In the case of `CC(C)Oc1ccc(C(=O)NC(Cc2c[nH]c3ccccc23)C(=O)NN)cc1` (stereo not drawn), under setting [2], the AC50 is 2.91 µM [rising, single point].
Turning to `Cc1cc(/C=C(\C#N)C(=O)NC2CCCCCC2)c(C)n1C`, the AC50 under setting [1] is 0.103 µM [falling, full curve, poor fit].
Regarding `COc1ccc(C)cc1S(=O)(=O)N1CCN(c2ccccc2)CC1`, the cell number change is -2.05%.
As for `CCCCN(C(=O)C1CCN(C(=O)c2ccccc2C)CC1)c1c(N)n(CCC)c(=O)[nH]c1=O`, the cell number change is 34.6%. Further, the AC50 under setting [2] is 3.66 µM [rising, full curve]. In addition, under setting [1], the AC50 was 0.411 µM [falling, full curve].
Consider `Cc1nc2ccccc2c(=O)n1/N=C/c1ccc(O)cc1`, for which the cell number change was -6.76%.
For `O=C(NCCc1ccccc1)c1cccc(S(=O)(=O)N2CCCCC2)c1`, the cell number change stood at 14.5%.
As for `COc1ccc(/C=N/n2c(C)nnc2C)c(OC)c1OC`, the cell number change was -14.6%. Under setting [1], the AC50 was 0.103 µM [falling, full curve, poor fit].
With `S=C(Nc1ccccc1)N1CCn2c1nc1ccccc12`, the cell number change is 7.64%. Under setting [1], the AC50 is 0.13 µM [rising, full curve, poor fit].
